Experimental data: doi:10.1101/834135
Results are given in words; binding and its absence hold for the method and conditions named. In cells and extracts the contact can be indirect. Some entries that bind do so weakly or less than the wild type.

Molecular target: T1, Sparc/osteonectin, cwcv and kazal-like domains proteoglycan 1 (SPOCK1) (human (endogenous in MCF7 and SKBR3)) (UniProt Q08629)
T1 sequence: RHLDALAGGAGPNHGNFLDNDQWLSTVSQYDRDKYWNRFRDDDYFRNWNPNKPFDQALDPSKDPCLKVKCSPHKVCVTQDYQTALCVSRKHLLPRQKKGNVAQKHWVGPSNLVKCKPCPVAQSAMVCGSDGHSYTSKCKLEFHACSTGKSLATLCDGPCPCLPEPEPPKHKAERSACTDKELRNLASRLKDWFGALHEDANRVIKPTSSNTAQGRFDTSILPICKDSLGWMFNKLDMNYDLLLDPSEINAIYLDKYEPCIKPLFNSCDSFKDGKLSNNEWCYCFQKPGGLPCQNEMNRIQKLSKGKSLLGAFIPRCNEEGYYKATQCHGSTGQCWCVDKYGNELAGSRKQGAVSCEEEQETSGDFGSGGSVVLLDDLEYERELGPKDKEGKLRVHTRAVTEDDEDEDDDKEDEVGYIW
Assay: co-IP

binding: binds
B1: SIX homeobox 1 (SIX1) (protein, UniProt Q15475 1-284)
chain: MSMLPSFGFTQEQVACVCEVLQQGGNLERLGRFLWSLPACDHLHKNESVLKAKAVVAFHRGNFRELYKILESHQFSPHNHPKLQQLWLKAHYVEAEKLRGRPLGAVGKYRVRRKFPLPRTIWDGEETSYCFKEKSRGVLREWYAHNPYPSPREKRELAEATGLTTTQVSNWFKNRRQRDRAAEAKERENTENNNSSSNKQNQLSPLEGGKPLMSSSEEEFSPPQSPDQNSVLLLQGNMGHARSSNYSLPGLTASQPSHGLQTHQHQLQDSLLGPLTSSLVDLGS
